Measurements as given in paper PMC11317515.
No constants are given. Whether binding was seen depends on the method and setting. In cells and extracts the contact can be indirect. A yes stands for co-enrichment or nearness to the bait. Other partners may have been found. Where a sequence is shown, tags or fusion partners need not be part of it.

Sequences of proteins named here, by UniProt entry; tags and fusion partners are left off. A change or cut given only in a name is not applied to a line headed by its entry.
UniProt O16266: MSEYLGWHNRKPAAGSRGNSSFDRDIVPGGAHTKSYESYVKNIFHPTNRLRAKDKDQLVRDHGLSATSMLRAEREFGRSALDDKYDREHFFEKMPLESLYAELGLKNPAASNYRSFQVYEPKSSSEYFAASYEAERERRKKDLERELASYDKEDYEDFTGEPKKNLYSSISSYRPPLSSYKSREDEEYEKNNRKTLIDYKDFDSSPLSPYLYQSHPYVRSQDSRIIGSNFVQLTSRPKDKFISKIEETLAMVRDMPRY
UniProt P02566: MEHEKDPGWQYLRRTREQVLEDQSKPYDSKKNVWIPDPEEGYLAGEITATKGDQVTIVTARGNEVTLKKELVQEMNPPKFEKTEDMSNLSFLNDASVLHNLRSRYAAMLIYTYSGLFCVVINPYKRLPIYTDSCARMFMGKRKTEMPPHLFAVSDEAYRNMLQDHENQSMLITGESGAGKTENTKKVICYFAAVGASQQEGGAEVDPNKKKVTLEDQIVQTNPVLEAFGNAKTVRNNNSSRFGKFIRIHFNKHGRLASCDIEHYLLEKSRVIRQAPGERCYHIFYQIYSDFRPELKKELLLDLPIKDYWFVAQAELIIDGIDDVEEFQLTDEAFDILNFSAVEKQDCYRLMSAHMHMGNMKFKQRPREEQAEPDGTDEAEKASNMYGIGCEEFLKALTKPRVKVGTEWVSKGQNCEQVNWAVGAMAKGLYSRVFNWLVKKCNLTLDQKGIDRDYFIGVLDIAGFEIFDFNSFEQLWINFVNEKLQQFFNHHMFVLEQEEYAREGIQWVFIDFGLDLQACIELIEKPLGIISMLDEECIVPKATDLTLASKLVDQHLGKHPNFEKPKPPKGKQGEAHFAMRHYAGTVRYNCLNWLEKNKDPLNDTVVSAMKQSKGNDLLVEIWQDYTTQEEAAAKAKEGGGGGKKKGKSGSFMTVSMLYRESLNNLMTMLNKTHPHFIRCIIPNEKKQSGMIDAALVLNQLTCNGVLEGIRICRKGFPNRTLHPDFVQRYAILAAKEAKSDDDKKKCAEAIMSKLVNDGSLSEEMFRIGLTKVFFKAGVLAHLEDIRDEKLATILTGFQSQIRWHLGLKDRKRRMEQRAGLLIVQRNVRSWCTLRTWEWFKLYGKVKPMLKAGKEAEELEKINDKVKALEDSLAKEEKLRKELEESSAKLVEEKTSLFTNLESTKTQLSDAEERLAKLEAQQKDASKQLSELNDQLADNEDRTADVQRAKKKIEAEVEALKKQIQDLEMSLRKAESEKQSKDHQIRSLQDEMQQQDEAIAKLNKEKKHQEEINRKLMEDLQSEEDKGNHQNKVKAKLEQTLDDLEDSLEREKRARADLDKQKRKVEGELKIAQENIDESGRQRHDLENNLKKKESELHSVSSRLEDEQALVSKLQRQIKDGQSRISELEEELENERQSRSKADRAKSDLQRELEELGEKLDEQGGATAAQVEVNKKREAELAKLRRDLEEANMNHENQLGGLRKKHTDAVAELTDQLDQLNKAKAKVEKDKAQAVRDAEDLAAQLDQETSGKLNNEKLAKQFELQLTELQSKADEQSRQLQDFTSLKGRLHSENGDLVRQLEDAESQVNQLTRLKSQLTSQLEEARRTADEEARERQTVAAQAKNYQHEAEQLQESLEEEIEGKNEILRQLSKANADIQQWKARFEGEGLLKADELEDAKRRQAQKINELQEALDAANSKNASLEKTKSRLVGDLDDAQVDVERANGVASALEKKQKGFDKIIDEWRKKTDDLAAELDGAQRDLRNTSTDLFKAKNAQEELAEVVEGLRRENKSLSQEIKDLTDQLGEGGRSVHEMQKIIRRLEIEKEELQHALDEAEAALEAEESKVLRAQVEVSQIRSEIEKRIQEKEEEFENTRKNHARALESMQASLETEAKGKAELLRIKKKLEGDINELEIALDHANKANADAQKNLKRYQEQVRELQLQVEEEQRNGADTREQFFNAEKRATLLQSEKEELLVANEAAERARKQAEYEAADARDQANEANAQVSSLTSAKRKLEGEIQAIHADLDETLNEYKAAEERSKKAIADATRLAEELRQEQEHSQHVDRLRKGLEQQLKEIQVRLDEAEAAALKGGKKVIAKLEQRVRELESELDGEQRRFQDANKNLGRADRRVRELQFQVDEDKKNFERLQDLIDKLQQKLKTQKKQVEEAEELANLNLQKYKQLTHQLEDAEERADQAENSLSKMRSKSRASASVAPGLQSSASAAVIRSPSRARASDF
UniProt P12844: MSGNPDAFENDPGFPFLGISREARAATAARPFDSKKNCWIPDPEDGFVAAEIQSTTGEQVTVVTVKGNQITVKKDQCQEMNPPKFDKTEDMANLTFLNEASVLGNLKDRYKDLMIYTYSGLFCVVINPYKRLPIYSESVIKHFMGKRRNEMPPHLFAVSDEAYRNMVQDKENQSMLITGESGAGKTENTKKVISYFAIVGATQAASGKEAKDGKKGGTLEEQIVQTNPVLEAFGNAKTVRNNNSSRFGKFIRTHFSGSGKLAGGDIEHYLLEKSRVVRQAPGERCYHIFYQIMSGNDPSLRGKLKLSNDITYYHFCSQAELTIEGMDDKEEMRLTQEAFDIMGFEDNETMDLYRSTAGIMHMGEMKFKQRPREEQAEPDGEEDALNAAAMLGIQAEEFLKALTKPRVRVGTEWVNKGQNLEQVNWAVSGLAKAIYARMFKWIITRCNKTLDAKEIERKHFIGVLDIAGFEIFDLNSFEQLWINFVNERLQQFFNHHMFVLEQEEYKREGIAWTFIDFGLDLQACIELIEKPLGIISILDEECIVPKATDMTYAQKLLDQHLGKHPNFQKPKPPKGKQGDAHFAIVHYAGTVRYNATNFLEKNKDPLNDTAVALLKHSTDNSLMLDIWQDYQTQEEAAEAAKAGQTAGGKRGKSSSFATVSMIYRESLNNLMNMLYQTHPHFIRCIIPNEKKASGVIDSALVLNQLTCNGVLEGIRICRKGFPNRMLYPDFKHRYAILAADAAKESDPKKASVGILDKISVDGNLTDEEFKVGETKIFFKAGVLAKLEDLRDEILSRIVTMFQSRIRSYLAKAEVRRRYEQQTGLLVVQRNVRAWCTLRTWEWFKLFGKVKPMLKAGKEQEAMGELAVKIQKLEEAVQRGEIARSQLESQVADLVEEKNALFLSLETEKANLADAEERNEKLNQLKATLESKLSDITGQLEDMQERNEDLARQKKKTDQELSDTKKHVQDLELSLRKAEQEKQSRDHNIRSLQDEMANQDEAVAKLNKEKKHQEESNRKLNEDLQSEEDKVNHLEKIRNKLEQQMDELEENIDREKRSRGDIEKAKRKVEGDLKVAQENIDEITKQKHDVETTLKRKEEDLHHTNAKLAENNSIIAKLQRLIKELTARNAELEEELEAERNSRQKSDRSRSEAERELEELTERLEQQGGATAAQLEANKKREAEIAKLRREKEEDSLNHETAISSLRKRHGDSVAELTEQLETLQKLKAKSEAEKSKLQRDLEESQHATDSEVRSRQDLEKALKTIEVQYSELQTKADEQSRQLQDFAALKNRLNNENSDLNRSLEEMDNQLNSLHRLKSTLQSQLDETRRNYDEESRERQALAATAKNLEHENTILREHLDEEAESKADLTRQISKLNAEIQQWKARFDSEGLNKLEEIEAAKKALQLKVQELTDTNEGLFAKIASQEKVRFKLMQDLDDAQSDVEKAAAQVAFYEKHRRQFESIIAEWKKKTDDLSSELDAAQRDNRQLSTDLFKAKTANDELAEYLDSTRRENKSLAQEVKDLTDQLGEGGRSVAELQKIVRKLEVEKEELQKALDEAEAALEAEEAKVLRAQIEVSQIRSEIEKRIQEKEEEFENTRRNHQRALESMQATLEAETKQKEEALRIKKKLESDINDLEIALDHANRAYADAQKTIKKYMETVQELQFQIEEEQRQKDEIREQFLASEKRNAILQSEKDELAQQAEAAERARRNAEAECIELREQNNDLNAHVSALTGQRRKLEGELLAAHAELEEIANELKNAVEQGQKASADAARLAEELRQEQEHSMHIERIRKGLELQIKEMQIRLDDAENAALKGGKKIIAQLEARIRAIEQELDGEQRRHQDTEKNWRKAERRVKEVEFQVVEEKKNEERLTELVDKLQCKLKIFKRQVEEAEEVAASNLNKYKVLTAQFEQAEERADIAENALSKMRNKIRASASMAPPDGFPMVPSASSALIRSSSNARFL

T1: UNC-45-miniTurbo-HA (C. elegans) (UniProt G5EG62)
T1 sequence: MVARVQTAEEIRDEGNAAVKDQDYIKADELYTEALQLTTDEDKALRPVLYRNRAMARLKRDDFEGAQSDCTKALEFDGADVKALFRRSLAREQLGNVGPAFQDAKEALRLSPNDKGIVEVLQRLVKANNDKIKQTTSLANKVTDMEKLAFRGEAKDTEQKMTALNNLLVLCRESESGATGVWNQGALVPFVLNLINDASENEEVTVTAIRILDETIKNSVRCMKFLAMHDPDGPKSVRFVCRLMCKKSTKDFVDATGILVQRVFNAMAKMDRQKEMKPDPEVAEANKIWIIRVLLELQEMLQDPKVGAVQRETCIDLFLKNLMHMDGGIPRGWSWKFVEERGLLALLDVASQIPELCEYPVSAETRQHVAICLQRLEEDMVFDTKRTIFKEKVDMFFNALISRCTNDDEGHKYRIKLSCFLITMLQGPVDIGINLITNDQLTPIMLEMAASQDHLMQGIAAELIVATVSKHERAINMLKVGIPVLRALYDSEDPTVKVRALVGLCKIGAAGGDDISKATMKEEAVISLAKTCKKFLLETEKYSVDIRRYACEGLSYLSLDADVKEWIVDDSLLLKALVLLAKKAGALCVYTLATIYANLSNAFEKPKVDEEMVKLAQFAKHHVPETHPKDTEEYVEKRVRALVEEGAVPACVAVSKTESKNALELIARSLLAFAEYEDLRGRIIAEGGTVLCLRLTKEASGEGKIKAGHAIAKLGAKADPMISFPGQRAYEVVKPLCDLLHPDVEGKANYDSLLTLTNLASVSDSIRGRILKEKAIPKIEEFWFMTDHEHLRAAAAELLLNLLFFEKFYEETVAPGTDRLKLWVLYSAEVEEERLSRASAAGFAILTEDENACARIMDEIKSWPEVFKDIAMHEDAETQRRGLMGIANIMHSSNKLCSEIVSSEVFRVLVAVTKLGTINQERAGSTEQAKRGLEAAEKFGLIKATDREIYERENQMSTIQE

B1: MLC-3 (protein, UniProt P53014 1-153)
chain: MAPPSQDVLKEIFNLYDEELDGKIDGTQVGDVARAAGLKPTQAMVTKAAGQEFKRKGEKRLTFEEWLPMYEQLAKEKEQGTYADFYEGLKVFDKEETGKILAAELRHILLALGERLSADEADELLKGVEDGEGMVKYEDFIKKVLAGPFPDQD
B2: HSP-16.11 (protein, UniProt P34696 1-145)
chain: MSLYHYFRPAQRSVFGDLMRDMAQMERQFTPVCRGSPSESSEIVNNDQKFAINLNVSQFKPEDLKINLDGHTLSIQGEQELKTEHGYSKKSFSRVILLPEDVDVGAVASNLSEDGKLSIEAPKKEAIQGRSIPIQQAPVEQKTSE
B3: HSP-16.41 (protein, UniProt P06581 1-143)
chain: MLMLRSPYSDSNALDHFLDELTGSVQFPYWRNADHNSFNFSDNIGEIVNDESKFSVQLDVSHFKPENLKIKLDGRELKIEGIQETKSEHGYLKRSFSKMILLPEDADLPSVKSAISNEGKLQIEAPKKTNSSRSIPINFVAKH
B4: HSP-16.48 (protein, UniProt P02513 1-143)
chain: MLMLRSPFSDSNVLDHFLDEITGSVQFPYWRNADHNSFNFSDNIGEIVNDESKFSVQLDVSHFKPEDLKIELDGRELKIEGIQEKKSEHGYSKRSFSKMILLPEDVDLTSVKSAISNEGKLQIEAPKKTNSSRSIPINFVAKH
B5: HSP-16.2 (protein, UniProt P06582 1-145)
chain: MSLYHYFRPAQRSVFGDLMRDMALMERQFAPVCRISPSESSEIVNNDQKFAINLNVSQFKPEDLKINLDGRTLSIQGEQELKTDHGYSKKSFSRVILLPEDVDVGAVASNLSEDGKLSIEAPKKEAVQGRSIPIQQAIVEEKSAE
B6: NHL-1 (endogenous) (protein, UniProt Q03601 1-974)
chain: MSSSPQNEAEAREKMRELMSRPPSSRPADFVNPLEKIEQLLTCPICLDRYKQPKLLPCQHTFCYPCLESCADTLHRNLKCPECRAEHNIPYDGVKAFQPNYTLTGFLEIHLQATPESAAEIEEYIHRYNLERCKICDEKADCEPCAHCDRKACKECRQTHMDMLKRDMSRLLNQVKRLANRITEASDNLSKGVDMMTMNCETTKAEIKEYFHRYQRDLKKKEDNFLMEVDTFQATETRNMSNLRDVLEIESSNMSEAVSRLDAAIKGECSIEDSELVRMKNTFTEGLEYLRNFQPDADELFNRKLRFSAGDDAAKLPAAITTSGELCVLVPQFSGRYLPLEQSYLPRPFRLPLESDSYRVKSDERASMRDREADRTSSRHSHRNPEPDESSIRYRRRQQLEDEAWNRLRNSSAAPSLLTTSVTADSSSRTSPWAADRVTRSVEPTKSRPTSLIVPNTETPRTVSPASKPPLPPQSVERVERTEDASPAPLPQLPIRKPPLPRQQSSNDDSLNEKVETIRRAHQQRQDASRAASRAVSSEESEGEDFPVSTNRGRIRIVCRAASVNRDDGLMSMIPGTGTIINVPPPQHQLPASAPITNGTSEQVAIPVTHFTGEEDESDIVVPAWLQRRRQRFQRSRTNPDIQAQFTSARVQQLLAERQSRLDSSTTTDEEKEKLAVLRQRGRSASREAGEWRARGRPRAVFGRKGAKDGELNWPRGICALSGGLVATCDSSNHRVCVFDKDGKFVRQFGGYGAGAGQLDSAAGLASSKLRVIVSDRYNHRISVFGLEGDHLFSFGGHGQGNAKFNNPWGVAVDDLGSIYVADKDNHRVQVFDKNGQFIAKFGSFGHLPGQLNSPLFIAVSRVTHHVYVSDSSNHRISVFDPHGVHLFSFGEEGFHGGQFKFPRGIAIDSQENLIIADSGNNRIQVFDAQGQFVSSFGTWGGGAGQLKGVEDVCVTADGSIVVTDRENHRIQIF

molecular target: T1, UNC-45-miniTurbo-HA (C. elegans); experiment: proximity labelling; UNC-45-miniTurbo-HA in body wall muscle of living worms; biotinylated proteins pulled down with streptavidin beads, label-free mass spectrometry; ratios against free TurboID (muscle cytosol) and UNC-45-FLAG (negative control); non-stress, and OptIMMuS mechanical stress (13 5-s blue light pulses, with or without ATR)

binding, binds:
F40A3.6 (endogenous) (from UniProt O16266)
UNC-54 (myosin heavy chain B, MHC B) (from UniProt P02566 1-1963)
MYO-3 (from UniProt P12844 1-1969)
B1
B2
B3
B4
B5
B6
